Inconclusive results, whose numbers are uncertain, are shown with a selection of clear calls. Where the call is inconclusive, the potency comes from a doubtful curve fit. Activity calls are given as the source filed them. Calls come from the whole dose curve; as a rule, active = well fitted cell-killing curve with a large enough effect; inconclusive = small, poorly fitted or top-dose-only effect, or effect the other way; inactive = no such curve, though single readings can be large or run the other way.
The molecules below were run on C33A (assay: Confirmatory qHTS for gynecologic anti-cancer compounds from libraries of approved drugs and bioactive compounds). Conditions: gynecologic cancer cell panel viability, ATPlite luminescence, 48 h; series mostly up to 57.6 µM; activity change, negative = viability loss: at the top concentration.
Procedure, shortened: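 ATP-based luminescent viability (ATPlite) after 48 h drug treatment at 37 °C, 5% CO2, across 57.5 uM–0.977 nM in 1:3 steps. Cells seeded at 1,000 per well 16 h beforehand; IC50 values computed, HEK 293T as selectivity control.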
% is set by controls: 0 for no effect and ±100 for the full control effect; potency is the fitted concentration of half-maximal effect.
Note: nearly all actives have a fitted effect of over 55% in size.

| Structure (SMILES) | Potency | activity change, negative = viability loss |
| --- | --- | --- |
| COc1cc2ncnc(Nc3ccc(F)c(Cl)c3)c2cc1OCCCN1CCOCC1 | inconclusive: 6.85 µM [cytotoxic, partial curve] |  |
| COc1cc2nccc(Oc3ccc(NC(=O)Nc4cc(C)on4)c(Cl)c3)c2cc1OC | inconclusive: 43.2 µM [cytotoxic, single point] |  |
| COc1c(C)c2c(c(O)c1C/C=C(\C)CCC(=O)O)C(=O)OC2 |  | inactive: -23.6% |
| Cc1ccc(C(=O)Nc2ccc(CN3CCN(C)CC3)c(C(F)(F)F)c2)cc1C#Cc1cnc2cccnn12 | active: 19.3 µM |  |
| COc1cc(N2CCC(N3CCN(C)CC3)CC2)ccc1Nc1ncnc(Nc2ccccc2S(=O)(=O)C(C)C)n1 | inconclusive: 19.3 µM [cytotoxic, partial curve] |  |
| COc1ccc(OC)c(-c2nnc3ccc(-c4ccc(OC)c(O[C@@H]5CCOC5)c4)nn23)c1 |  | inactive: -2.95% |
| O=C(CCCCCCNC(=O)c1cnc(N(c2ccccc2)c2ccccc2)nc1)NO | active: 10.9 µM |  |
| CC(=O)O[C@H]1C(=O)[C@@]2(C)[C@H]([C@H](OC(=O)c3ccccc3)[C@]3(O)C[C@H](OC(=O)[C@H](O)[C@@H](NC(=O)c4ccccc4)c4ccccc4)C(C)=C1C3(C)C)[C@]1(OC(C)=O)CO[C@@H]1C[C@@H]2O | inconclusive: 0.0291 µM [cytotoxic, full curve] |  |
| CCc1cccc(CC)c1NC(=O)N1Cc2[nH]nc(NC(=O)c3ccc(N4CCN(C)CC4)cc3)c2C1 |  | inactive: 8.99% |
| COc1ccc(-c2ccc3c(N4CCOCC4C)nc(N4CCOCC4C)nc3n2)cc1CO (stereo not given) | inconclusive: 0.153 µM [cytotoxic, full curve] |  |
